Legend:
[1] = known from background; cited from earlier work
[2] = Relative sweetness compared with sugar; conditions: sugar = 1

| Compound | Sweetness relative to sugar (sucrose) [1] | Relative Sweetness per g of raw material [2] |
| --- | --- | --- |
| O=C[C@H](O)[C@@H](O)[C@H](O)CO [Xylose] | about 40% | – |
| O=C(CO)[C@@H](O)[C@@H](O)[C@H](O)CO [Tagatose] | about 90% | 0.92 |
| Sugar [reference compound] | – | 1 |
